Patent US10071112B2, “Vitamin E-nucleoside prodrugs” (EPIGENETICS PHARMA LLC, priority 2014, dated 2018)
Where a name gives a salt, the structure may show the parent alone. Some results were stated once for a whole list of compounds, not compound by compound.

System: breast (MDA), lung (H460) and colon (H116) cancer cell lines
Test: Shift of GI50 by the nucleoside transport inhibitor dipyridamole across the three cell lines
Format: cell-based
Details: with vs without 1 μM dipyridamole, over MDA

## Cc1cc(OP(=O)(O)OC[C@H]2O[C@@H](n3ccc(N)nc3=O)C(F)(F)C2O)cc2c1O[C@](C)(CCC[C@H](C)CCC[C@H](C)CCCC(C)C)CC2 (stereo partly drawn) [Compound 2, D-δ-tocopheryl phosphate-5′-gemcitabine, triethylammonium salt]
  increase of GI50 by dipyridamole: at most 2.3 fold
